For one molecule, IC50 results are on record in publication PMC9319549, “Synthesis and Biological Evaluation of Imadazo[1,2-a]pyrazines as Anticancer and Antiviral Agents through Inhibition of CDK9 and Human Coronavirus” (Pharmaceuticals, 2022).

What all share (test): cells
Experiment [1] concerns colorectal cancer (HCT116). To be noted: Homo sapiens, HCT-116, 48 h, read-out: IC50 HCT116.
Experiment [2] concerns chronic myelogenous leukaemia. To be noted: K652, 48 h, read-out: IC50 K652.
The subject of another experiment is normal cells FHC. To be noted: read-out: FHC IC50.

As usually defined, the IC50 is the concentration that gives 50% inhibition. Consider `CN[C@@H]1C[C@H]2O[C@@](C)([C@@H]1OC)n1c3ccccc3c3c4c(c5c6ccccc6n2c5c31)C(=O)NC4` [Staurosporine, reference compound], for which the IC50 in experiment [1] came out at 10.9 ± 0.26 µM; in experiment [2], 22.1 ± 0.56 µM; in the experiment with normal cells FHC it was 38.2 ± 0.97 µM.
